{
  "source": "patent US20250064778A1",
  "about": "“GRANULES COMPRISING PROGERININ, AND SACHETS USING SAME” (PRG S&TECH INC., priority 2022, published 2025)",
  "origin": "cited, not measured here",
  "details": "BCS criteria; cited from earlier work",
  "note": "The name of at least one read-out is uncertain.",
  "data": [
    {"smiles": "CC1(C)Oc2cc3oc(=O)ccc3cc2C[C@@H]1OC/C=C/c1ccccc1", "note": "[progerinin, (7S)-(+)-8,8-dimethyl-7-(3-phenylallyloxy)-7,8-dihydro-6H-pyrano[3,2-g]chromen-2-one]", "values": [
      {"measurement": "apparent permeability", "value": "high apparent permeability"}
    ]}
  ]
}
